Consider 2 sequences from publication PMC5915175.

What all share (assay): EMSA, supershift
The test system of one data set is IRF4 R98W + PU.1. Particulars: PU.1 and IRF4 R98W cotransfected, IRF4-PU.1 complex abolished; 10 ug HEK293T nuclear lysate (nuclear lysis buffer 20 mM Hepes pH 7.9, 0.4 M NaCl, 1 mM EDTA, 1 mM EGTA, 25% glycerol) with 32P probe, 30 min on ice; protein in a lysate after overexpression; label: 32P (dATP, Klenow fill-in).
For the next data set, the system named is IRF4 WT + PU.1. Particulars: PU.1 and IRF4 WT cotransfected, anti-IRF4 supershift, cold probe competition; 10 ug HEK293T nuclear lysate (nuclear lysis buffer 20 mM Hepes pH 7.9, 0.4 M NaCl, 1 mM EDTA, 1 mM EGTA, 25% glycerol) with 32P probe, 30 min on ice; protein in a lysate after overexpression; label: 32P (dATP, Klenow fill-in).
The next data set addresses T1, IRF4 R98W (Homo sapiens) (UniProt Q15306).
T1 sequence (looked up): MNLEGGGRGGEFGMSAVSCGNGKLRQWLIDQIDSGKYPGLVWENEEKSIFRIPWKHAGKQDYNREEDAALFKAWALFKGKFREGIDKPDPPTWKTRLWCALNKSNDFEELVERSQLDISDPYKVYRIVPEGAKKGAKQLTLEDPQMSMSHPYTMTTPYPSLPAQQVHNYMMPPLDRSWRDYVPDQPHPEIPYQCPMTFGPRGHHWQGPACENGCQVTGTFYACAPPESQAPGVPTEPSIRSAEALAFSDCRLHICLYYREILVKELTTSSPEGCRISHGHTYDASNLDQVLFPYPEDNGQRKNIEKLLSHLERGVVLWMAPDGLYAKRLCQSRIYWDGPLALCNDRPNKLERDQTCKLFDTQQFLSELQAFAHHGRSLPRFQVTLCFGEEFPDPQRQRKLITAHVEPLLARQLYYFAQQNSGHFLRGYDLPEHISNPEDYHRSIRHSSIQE
To be noted: 10 ug HEK293T nuclear lysate (nuclear lysis buffer 20 mM Hepes pH 7.9, 0.4 M NaCl, 1 mM EDTA, 1 mM EGTA, 25% glycerol) with 32P probe, 30 min on ice; protein in a lysate after overexpression; residues 1-451; label: 32P (dATP, Klenow fill-in).

Construct, isoform or probe ends are uncertain for at least one entry. Results from cells or extracts need not show a direct contact. For part of these data: A negative result means that nothing was seen under these conditions. For part of these data: Where a protein sequence is shown, tags need not be part of it. For part of these data: At least one verdict rests on a figure or table, not on a statement of the authors.

For “GATCGCTCTTTATTTTCCTTCACTTTGGTTAC (double strand) [lambdaB probe (EICE)]”, the values for the binding result with IRF4 R98W + PU.1 and in the data set with IRF4 WT + PU.1 were “no binding” and “binds”, respectively.

As for “GATCGGGAAAGGGAAACCGAAACTGAA (double strand) [ISRE probe (ISG15 promoter-based)]”, in the data set with IRF4 R98W (Homo sapiens), the binding result is recorded as “no binding”.
